Assay [1] concerns the target GST-tagged ARNO PH domain (human) (UniProt Q99418). The assay can be described thus: pull-down; 25 ug GST-fused PH domain on glutathione-beads incubated with 200 ug of lysate of cells expressing Her2-EGFP, GGA3 buffer, 4°C, 1 h; anti-GFP immunoblot; cells with serum, starved, or EGF; only the target purified. (In general: A western blot detects proteins with antibodies after separation by electrophoresis.)

Protein sequences, listed by entry. Tags and fused reporters are not part of them. Residues count along the entry.
UniProt Q99418, residues 261-387: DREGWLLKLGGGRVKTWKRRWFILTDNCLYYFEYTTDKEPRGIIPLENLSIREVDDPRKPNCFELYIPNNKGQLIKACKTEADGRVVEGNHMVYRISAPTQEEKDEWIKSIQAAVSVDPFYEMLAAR
UniProt Q6DN90: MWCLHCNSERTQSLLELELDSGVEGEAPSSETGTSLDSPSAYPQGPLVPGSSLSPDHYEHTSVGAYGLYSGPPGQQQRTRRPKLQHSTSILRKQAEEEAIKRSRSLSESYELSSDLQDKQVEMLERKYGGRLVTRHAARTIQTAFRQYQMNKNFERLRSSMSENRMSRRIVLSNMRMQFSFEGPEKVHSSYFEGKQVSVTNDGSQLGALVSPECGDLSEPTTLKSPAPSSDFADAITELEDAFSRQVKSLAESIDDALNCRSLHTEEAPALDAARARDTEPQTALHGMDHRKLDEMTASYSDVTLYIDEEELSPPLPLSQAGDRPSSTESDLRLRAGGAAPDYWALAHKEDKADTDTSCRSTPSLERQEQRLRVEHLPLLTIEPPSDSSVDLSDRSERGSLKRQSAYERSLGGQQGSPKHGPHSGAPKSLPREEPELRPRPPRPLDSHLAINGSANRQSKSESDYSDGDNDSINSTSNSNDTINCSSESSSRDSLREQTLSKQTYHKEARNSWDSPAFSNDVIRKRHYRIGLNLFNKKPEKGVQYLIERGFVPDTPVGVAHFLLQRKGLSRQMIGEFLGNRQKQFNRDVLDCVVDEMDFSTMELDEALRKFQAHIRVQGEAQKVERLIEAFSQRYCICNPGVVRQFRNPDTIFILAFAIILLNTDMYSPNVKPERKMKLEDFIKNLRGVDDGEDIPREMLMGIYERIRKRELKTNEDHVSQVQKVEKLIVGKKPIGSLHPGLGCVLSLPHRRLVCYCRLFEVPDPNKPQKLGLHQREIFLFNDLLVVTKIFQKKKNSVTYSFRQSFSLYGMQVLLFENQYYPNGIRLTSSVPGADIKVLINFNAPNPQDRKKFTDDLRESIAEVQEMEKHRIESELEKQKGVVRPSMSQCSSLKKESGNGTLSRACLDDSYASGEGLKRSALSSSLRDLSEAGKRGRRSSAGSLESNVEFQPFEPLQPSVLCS

Assay [2] concerns the target GEP100, endogenous in H522 lung adenocarcinoma cells (human (endogenous in H522)) (UniProt Q6DN90). Nature of the assay: co-IP; H522 cells expressing EGFP-GEP100-PH or EGFP alone; anti-GEP100 and anti-GFP immunoprecipitation from total cell lysates (250 ug), anti-Her2 immunoblot.
Assay [3] shares this target. The assay can be described thus: co-IP; endogenous proteins, H522 cell lysates (250 ug); anti-GEP100 immunoprecipitation, anti-Her2 immunoblot; cells with serum or serum-starved 24 h.

No constants are given. Whether binding was seen depends on the method and setting. In cells and extracts the contact can be indirect. Some binding calls cover weakened binding; strength is not graded here.

In the case of “Her2 tagged with enhanced green fluorescence protein (EGFP) at the C-terminus, wild type (from UniProt P04626-1 23-1255) (receptor)”, the binding result in assay [1] is on record as “no binding”.
With “Her2, endogenous (overexpressed) in H522 lung adenocarcinoma cells (from UniProt P04626 23-1255) (receptor)”, the binding result in assay [2] and in assay [3] was “binds” each time.

For the origin of these results see paper PMC3178645.
